From patent US20160194644A1
No constants are given. Whether binding was seen depends on the method and setting. Binding seen in cells or lysates may run through a third protein. Some binding calls cover weakened binding; strength is not graded here. Tags and fused reporters may be left off the sequences shown.

Chains of the proteins cited; added tags and fusions are not shown. Lines headed by an entry give the natural chain unless they say otherwise; changes in a name come on top. A line that says so, or that is headed by a name, gives the form on record, which may keep a tag or linker.
UniProt P13569: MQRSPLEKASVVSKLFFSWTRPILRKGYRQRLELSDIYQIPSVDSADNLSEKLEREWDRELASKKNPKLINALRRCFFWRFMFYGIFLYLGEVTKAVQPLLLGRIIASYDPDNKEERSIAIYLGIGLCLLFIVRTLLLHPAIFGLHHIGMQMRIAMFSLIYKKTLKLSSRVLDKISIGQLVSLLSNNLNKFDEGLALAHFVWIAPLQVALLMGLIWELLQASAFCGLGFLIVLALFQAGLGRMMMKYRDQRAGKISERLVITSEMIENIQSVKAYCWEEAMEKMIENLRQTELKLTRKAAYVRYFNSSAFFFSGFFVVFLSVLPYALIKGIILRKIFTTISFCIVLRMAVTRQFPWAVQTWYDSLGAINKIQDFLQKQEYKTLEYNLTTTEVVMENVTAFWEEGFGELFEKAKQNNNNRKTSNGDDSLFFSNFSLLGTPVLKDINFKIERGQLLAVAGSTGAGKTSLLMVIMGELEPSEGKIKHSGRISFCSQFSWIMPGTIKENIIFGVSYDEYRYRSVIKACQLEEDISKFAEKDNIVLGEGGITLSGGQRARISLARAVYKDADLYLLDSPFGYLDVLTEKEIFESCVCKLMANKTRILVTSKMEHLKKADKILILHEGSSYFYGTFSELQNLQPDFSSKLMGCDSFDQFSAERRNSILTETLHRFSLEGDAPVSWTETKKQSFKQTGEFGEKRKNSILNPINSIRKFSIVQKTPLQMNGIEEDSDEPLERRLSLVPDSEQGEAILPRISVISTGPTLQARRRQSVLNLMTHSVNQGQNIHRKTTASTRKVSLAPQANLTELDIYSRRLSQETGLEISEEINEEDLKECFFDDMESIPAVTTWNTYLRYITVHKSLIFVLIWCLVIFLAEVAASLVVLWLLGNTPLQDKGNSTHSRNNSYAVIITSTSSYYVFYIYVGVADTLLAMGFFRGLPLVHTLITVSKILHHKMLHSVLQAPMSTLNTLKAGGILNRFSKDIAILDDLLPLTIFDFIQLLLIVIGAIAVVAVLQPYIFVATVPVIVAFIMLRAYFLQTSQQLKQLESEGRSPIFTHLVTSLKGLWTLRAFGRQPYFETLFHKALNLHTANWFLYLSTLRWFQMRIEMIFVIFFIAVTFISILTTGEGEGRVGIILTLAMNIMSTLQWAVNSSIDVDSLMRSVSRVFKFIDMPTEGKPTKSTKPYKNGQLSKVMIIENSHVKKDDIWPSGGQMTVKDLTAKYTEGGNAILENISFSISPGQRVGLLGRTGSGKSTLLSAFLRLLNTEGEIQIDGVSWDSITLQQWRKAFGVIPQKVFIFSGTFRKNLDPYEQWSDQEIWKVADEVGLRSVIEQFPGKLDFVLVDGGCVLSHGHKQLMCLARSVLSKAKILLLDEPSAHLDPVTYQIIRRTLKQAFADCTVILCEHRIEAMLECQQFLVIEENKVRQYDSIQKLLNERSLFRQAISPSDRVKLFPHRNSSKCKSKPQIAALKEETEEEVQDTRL
deltaF508 CFTR-HA (HA tag epitope at the C terminal end) (P13569, form named): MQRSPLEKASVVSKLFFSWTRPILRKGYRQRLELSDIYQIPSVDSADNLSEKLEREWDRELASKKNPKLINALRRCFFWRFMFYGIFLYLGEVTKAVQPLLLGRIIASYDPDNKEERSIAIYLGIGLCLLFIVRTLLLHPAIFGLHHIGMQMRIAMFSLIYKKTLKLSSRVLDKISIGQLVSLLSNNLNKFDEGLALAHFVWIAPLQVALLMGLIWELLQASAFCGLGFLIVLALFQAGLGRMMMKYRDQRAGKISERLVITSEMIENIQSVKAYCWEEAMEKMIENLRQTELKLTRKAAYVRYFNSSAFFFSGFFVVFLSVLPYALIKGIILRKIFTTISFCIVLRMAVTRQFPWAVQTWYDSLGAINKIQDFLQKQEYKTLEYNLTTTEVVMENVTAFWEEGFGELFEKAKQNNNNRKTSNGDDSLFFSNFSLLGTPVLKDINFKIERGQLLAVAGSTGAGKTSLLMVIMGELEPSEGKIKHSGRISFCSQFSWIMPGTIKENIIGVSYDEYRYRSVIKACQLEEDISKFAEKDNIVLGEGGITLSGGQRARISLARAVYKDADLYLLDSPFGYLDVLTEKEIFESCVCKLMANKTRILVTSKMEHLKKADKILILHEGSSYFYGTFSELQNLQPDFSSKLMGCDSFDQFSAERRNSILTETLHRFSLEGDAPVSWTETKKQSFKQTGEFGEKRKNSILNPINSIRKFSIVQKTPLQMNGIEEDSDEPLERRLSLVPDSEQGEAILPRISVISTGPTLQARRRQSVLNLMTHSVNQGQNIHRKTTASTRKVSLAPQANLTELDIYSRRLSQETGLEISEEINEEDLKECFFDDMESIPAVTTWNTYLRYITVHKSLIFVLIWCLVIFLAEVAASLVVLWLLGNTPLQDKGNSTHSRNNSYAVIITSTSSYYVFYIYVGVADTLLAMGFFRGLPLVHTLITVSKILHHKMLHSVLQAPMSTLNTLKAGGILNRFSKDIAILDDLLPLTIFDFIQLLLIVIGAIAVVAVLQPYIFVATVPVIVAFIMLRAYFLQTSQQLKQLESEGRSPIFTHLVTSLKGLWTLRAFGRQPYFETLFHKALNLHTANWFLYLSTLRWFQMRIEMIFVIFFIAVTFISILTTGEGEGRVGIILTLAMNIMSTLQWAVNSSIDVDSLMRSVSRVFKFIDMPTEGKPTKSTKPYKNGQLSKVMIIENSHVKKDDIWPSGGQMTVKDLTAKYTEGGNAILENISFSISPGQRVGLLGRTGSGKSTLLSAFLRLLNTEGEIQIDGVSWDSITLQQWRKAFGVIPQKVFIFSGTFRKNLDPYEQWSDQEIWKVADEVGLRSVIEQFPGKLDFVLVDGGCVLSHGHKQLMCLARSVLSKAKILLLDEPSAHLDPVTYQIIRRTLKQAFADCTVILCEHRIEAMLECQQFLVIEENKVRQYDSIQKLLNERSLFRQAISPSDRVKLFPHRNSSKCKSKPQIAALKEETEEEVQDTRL

How the values were obtained:
[1] = target: deltaF508 CFTR-HA (HA tag epitope at the C terminal end) (UniProt P13569); experiment: anti-HA co-immunoprecipitation from co-transfected HEK293T cells
[2] = target: deltaF508 CFTR-HA (HA tag epitope at the C terminal end) (UniProt P13569); experiment: reciprocal anti-Flag co-immunoprecipitation from co-transfected HEK293T cells
HA-UBE2J1 [3] = target: T1, HA-UBE2J1 (UniProt Q9Y385); experiment: Flag co-immunoprecipitation (refers to FIG. 4B)
T1 sequence (looked up): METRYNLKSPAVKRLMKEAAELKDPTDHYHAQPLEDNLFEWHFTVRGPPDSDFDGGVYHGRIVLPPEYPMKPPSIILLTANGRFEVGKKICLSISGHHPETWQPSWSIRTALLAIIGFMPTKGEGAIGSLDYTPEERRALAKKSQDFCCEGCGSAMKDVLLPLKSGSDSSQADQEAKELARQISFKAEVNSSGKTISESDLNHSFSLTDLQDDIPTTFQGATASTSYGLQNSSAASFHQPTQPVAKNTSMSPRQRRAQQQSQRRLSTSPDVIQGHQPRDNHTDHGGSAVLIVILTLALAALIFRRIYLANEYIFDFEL

myc-UBE2J2 [4] = target: T2, myc-UBE2J2 (UniProt Q8N2K1); experiment: Flag co-immunoprecipitation (refers to FIG. 4B)
T2 sequence (looked up): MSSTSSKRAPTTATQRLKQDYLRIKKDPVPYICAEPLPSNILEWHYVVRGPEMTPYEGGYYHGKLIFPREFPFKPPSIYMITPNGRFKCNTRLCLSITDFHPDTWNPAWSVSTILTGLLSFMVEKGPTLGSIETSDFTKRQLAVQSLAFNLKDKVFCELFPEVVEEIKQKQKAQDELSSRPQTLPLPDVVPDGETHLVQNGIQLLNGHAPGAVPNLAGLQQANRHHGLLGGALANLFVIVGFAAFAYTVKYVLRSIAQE

HA-UBE2J1 [5] = target: T1, HA-UBE2J1; experiment: Flag co-immunoprecipitation from HEK293T cells co-transfected with HA-UBE2J1
[6] = target: WT CFTR-HA (HA tag epitope at the C terminal end) (UniProt P13569); experiment: anti-HA co-immunoprecipitation from co-transfected HEK293T cells, with MG132
[7] = target: deltaF508 CFTR-HA (HA tag epitope at the C terminal end) (UniProt P13569); experiment: as above
myc-UBE2J2 [8] = target: T2, myc-UBE2J2; experiment: Flag co-immunoprecipitation from HEK293T cells co-transfected with myc-UBE2J2
endogenous Derlin-1 [9] = target: T3, endogenous Derlin-1 (UniProt Q9BUN8); experiment: Flag co-immunoprecipitation from transfected HEK293T cells, immunoblot (FIG. 4A legend)
T3 sequence (looked up): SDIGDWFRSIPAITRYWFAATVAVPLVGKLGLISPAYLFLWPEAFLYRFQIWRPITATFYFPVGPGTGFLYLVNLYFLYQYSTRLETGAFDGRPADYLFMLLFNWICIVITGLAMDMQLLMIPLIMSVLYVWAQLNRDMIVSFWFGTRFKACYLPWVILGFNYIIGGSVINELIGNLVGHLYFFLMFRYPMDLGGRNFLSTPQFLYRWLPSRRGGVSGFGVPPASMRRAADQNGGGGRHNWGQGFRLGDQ

endogenous Erlin2 [10] = target: T4, endogenous Erlin2 (UniProt O94905); experiment: as above
T4 sequence (looked up): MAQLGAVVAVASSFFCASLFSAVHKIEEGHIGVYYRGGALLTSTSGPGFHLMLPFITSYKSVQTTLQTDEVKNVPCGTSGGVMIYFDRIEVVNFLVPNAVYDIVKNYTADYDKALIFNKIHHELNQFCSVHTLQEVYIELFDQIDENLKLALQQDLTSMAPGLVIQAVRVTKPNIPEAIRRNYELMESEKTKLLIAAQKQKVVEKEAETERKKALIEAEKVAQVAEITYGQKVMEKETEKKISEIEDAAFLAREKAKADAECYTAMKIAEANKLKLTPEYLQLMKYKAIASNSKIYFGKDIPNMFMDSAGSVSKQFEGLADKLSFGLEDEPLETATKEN

[11] = target: WT CFTR-HA (HA tag epitope at the C terminal end) (UniProt P13569); experiment: co-immunoprecipitation from co-transfected HEK293T cells, MG132 treated (FIG. 5D legend)
[12] = target: deltaF508 CFTR-HA (HA tag epitope at the C terminal end) (UniProt P13569); experiment: as above
endogenous Erlin2 [13] = target: T4, endogenous Erlin2; experiment: Flag co-immunoprecipitation from transfected HEK293T cells, immunoblot for endogenous Erlin2
HA-UBE2J1 [14] = target: T1, HA-UBE2J1; experiment: Flag co-immunoprecipitation from HEK293T cells co-transfected with HA-UBE2J1 (FIG. 4B legend)
myc-UBE2J2 [15] = target: T2, myc-UBE2J2; experiment: Flag co-immunoprecipitation from HEK293T cells co-transfected with myc-UBE2J2 (FIG. 4B legend)
endogenous Derlin-1 [16] = target: T3, endogenous Derlin-1; experiment: Flag co-immunoprecipitation from transfected HEK293T cells, immunoblot for endogenous Derlin-1

Measured: binding

B1: RNF185 RM (C39A, C42A), Flag-tagged (enzyme, human, UniProt Q96GF1 1-192, looked up, not shown: small tags and cut ends)
chain: MASKGPSASASPENSSAGGPSGSSNGAGESGGQDSTFEANIALDTAKDAVISLCGHLFCWPCLHQWLETRPNRQVCPVCKAGISRDKVIPLYGRGSTGQQDPREKTPPRPQGQRPEPENRGGFQGFGFGDGGFQMSFGIGAFPFGIFATAFNINDGRPPPAVPGTPQYVDEQFLSRLFLFVALVIMFWLLIA
binds: [1] | [2]

B2: Flag-RNF185 (wild type, full length human RNF185 with N-terminal Flag tag) (enzyme, not shown: small tags and cut ends)
chain: ASKGPSASASPENSSAGGPSGSSNGAGESGGQDSTFECNICLDTAKDAVISLCGHLFCWPCLHQWLETRPNRQVCPVCKAGISRDKVIPLYGRGSTGQQDPREKTPPRPQGQRPEPENRGGFQGFGFGDGGFQMSFGIGAFPFGIFATAFNINDGRPPPAVPGTPQYVDEQFLSRLFLFVALVIMFWLLIA
binds: HA-UBE2J1 [3] | myc-UBE2J2 [4] | HA-UBE2J1 [5] | [6] | [7] | myc-UBE2J2 [8] | endogenous Derlin-1 [9] | endogenous Erlin2 [10] | [11] | [12] | endogenous Erlin2 [13] | HA-UBE2J1 [14] | myc-UBE2J2 [15] | endogenous Derlin-1 [16]
